PubChem BioAssay AID2685 (National Center for Advancing Translational Sciences (NCATS), 2010)
Some of the results follow. The main result of the screen is listed elsewhere. These columns were measured beside it and carry no call. Most of these compounds were active or inconclusive in the main read-out, so they are no random draw. Potencies come from curve fits of mixed quality, noted in brackets.

Experiment: qHTS Assay for Lipid Storage Modulators in Drosophila S3 Cells;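 on cell number change: cells counted by Cell Tracker Red CMTPX staining in the red channel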
Settings: BODIPY lipid droplet fluorescence, 18-24 h; for cell number change: measured here: cell count max response, cells fed with added oleic acid
Outline: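 Drosophila S3 cells got compounds at several concentrations plus oleic acid (400 uM solution). Laser-scanning cytometry with 488 nm excitation read lipid droplets at 500-530 nm and cells at 575-640 nm. Percent activity was relative to 20 uM Triacsin C.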

[1] = measured here: lipid fluorescence (Fed channel) AC50, cells fed with added oleic acid
[2] = measured here: cell number channel AC50, cells fed with added oleic acid

| Compound | cell number change | AC50 [1] | AC50 [2] |
| --- | --- | --- | --- |
| CC(NC(=O)c1ccccc1Cl)NC(=O)c1ccccc1Cl | 17.5% | 6.51 µM [rising, single point] |  |
| COc1ccc(OC(C)C(=O)Nc2cccc([N+](=O)[O-])c2)cc1 (centres undefined) | 21.9% | 20.6 µM [rising, single point] |  |
| CCOc1ccc(S(=O)(=O)N2CCCC(C(=O)Nc3cccc(C)c3)C2)cc1 (centres undefined) |  | 29.1 µM [falling, single point] |  |
| COc1ccc(S(=O)(=O)N2CCCCC2)cc1NS(=O)(=O)c1cc(Cl)ccc1Cl | -4.94% |  |  |
| CCn1c(SCc2cc(=O)[nH]c3ccccc23)nnc1C1CC1 | 182% |  | 23.1 µM [rising, partial curve] |
| CC(=O)CSc1ccc(S(=O)(=O)N2CCN(C)CC2)cn1 | 11.8% | 13 µM [rising, partial curve, poor fit] |  |
| Cc1cc(-c2ccc3ccccc3c2)n2ncnc2n1 | 7.56% |  |  |
| COc1cc(/C=C/C(=O)OCC(=O)Nc2cc(S(=O)(=O)N3CCCCC3)ccc2C)ccc1O |  | 6.51 µM [rising, single point] |  |
| CCOc1ccccc1-n1nnnc1SCC(=O)Nc1cc(C)on1 | -12.9% |  | 0.13 µM [falling, partial curve, poor fit] |
| COC(=O)c1ccc2c(=O)n(CCCCCC(=O)N3CCN(c4ccc(F)cc4)CC3)c(=O)[nH]c2c1 | -30.5% | 9.2 µM [falling, partial curve] | 0.058 µM [falling, full curve, poor fit] |
| CCOC(=O)C1CCN(C(=O)COc2ccc(N(C)S(=O)(=O)c3ccc(C)cc3)cc2)CC1 |  | 0.00651 µM [falling, full curve, poor fit] |  |
| CCCCCN(C(=O)CCC(=O)OCc1ccccc1F)c1c(N)n(CCCC)c(=O)[nH]c1=O | -75% |  | 20.6 µM [falling, single point] |
| CS(=O)(=O)c1ccc(C(=O)Nc2ccc(S(=O)(=O)N3CCCCC3)cc2)cc1 | -50% | 29.1 µM [falling, single point] | 16.4 µM [falling, single point] |
| Nc1ccc(S(=O)(=O)N2CCCC2)cc1Cl | -17.4% | 0.82 µM [falling, partial curve, poor fit] |  |
| CC(=NCCc1ccccc1)C1=C(O)COC1=O | -9.79% | 20.6 µM [falling, single point] | 2.31 µM [falling, partial curve] |
| COc1ccccc1NC(=O)c1cc[n+](C)cc1 | -10.4% |  |  |
| COC(=O)C/C=C/[C@@H](C)[C@@H](/C=N/OC[C@H]1O[C@H](c2ccccc2)C=C[C@@H]1Oc1ccc(OC)cc1)NS(=O)(=O)c1ccc(C)cc1 | 26.2% | 14.6 µM [rising, partial curve] |  |
| Cc1ccc(C(=O)OCC(=O)N2CCNC2=O)c(C)c1 | -9.5% |  |  |
| CCOc1cc(C(=O)Nc2ccccc2F)cc(Br)c1OCC |  |  | 0.116 µM [falling, full curve, poor fit] |
| Cc1ccc(Nc2nc(N)nc(CN3CCN(Cc4ccc5c(c4)OCO5)CC3)n2)cc1Cl | -47.5% | 29.1 µM [falling, single point] | 14.6 µM [falling, partial curve, poor fit] |
| CN(C)CCNC(=O)C12CC3(C)CC(C)(CC(C)(C3)C1)C2 | -36.9% | 0.231 µM [falling, partial curve, poor fit] | 16.4 µM [falling, single point] |
| Cc1ccc(C(=O)N/C(=C\c2ccco2)C(=O)NCCCN2CCOCC2)cc1C | 32.1% |  | 5.8 µM [rising, full curve, poor fit] |
| Cc1sc(NC(=O)COc2cccc(-n3cnnn3)c2)c(C#N)c1C | 55.8% | 3.66 µM [rising, full curve] | 3.26 µM [rising, full curve] |
| O=C(NCCc1ccccc1)C1=COCCO1 | 12.6% |  |  |
| COc1cc(/C=N/N(C)C2=NS(=O)(=O)c3ccccc32)cc(OC)c1OC | 3.78% | 0.651 µM [falling, full curve, poor fit] |  |
| CCn1c(=O)c2c(nc3n2CC(C)CN3CCc2ccccc2)n(C)c1=O (centres undefined) | -31.8% |  | 5.8 µM [falling, full curve, poor fit] |
| CCN(CC)C(=O)CSC1=C(C#N)C(c2ccco2)C(C(=O)OCCOC)=C(C)N1 (centres undefined) | 18.2% | 0.082 µM [rising, full curve, poor fit] |  |
| COc1cc(C(=O)OC(C)C(=O)NC2CCCCC2C)c([N+](=O)[O-])cc1OC (centres undefined) | -38.8% | 16.4 µM [falling, single point] | 20.6 µM [falling, single point] |

Part of the list above, field by field.
CCOc1ccc(S(=O)(=O)N2CCCC(C(=O)Nc3cccc(C)c3)C2)cc1 (centres undefined)
  AC50 [1]: 29.1 µM [falling, single point]
Cc1ccc(C(=O)N/C(=C\c2ccco2)C(=O)NCCCN2CCOCC2)cc1C
  cell number change: 32.1%
  AC50 [2]: 5.8 µM [rising, full curve, poor fit]
CCN(CC)C(=O)CSC1=C(C#N)C(c2ccco2)C(C(=O)OCCOC)=C(C)N1 (centres undefined)
  cell number change: 18.2%
  AC50 [1]: 0.082 µM [rising, full curve, poor fit]

Continued:

| Compound | cell number change | AC50 [1] | AC50 [2] |
| --- | --- | --- | --- |
| COc1ccc(-c2c(-c3ccc(OC)c(C)c3O)n[nH]c2C)cc1 | -59.3% | 11.6 µM [rising, partial curve, poor fit] | 11.6 µM [falling, partial curve, poor fit] |
| CCc1cc(C(=O)N2CCN(S(=O)(=O)c3cc(C)ccc3C)CC2)sc1C |  | 18.4 µM [falling, partial curve] |  |
| COCCNC(=O)CC(c1ccccc1)c1ccccc1 | -19.1% | 14.6 µM [falling, partial curve] | 1.3 µM [falling, partial curve] |
| Cc1ccc(OCCC(=O)NNC(=O)c2cc(C)oc2C)cc1 | -13.7% | 0.259 µM [rising, full curve] |  |
| CCNc1nc(NC(C)C)nc(N(n2cnnc2)S(=O)(=O)c2ccc(C)cc2)n1 | 0.367% |  | 0.92 µM [rising, full curve] |
| COc1ccc(/C=N/n2cnnc2SCc2ccc(OC)cc2)cc1 |  |  | 6.51 µM [rising, single point] |
| COC(=O)c1ccccc1NC(=O)N1CCN(Cc2ccco2)CC1 | 15.8% | 0.103 µM [falling, full curve, poor fit] |  |
| COc1ccc(CCC(=O)N2CCN(S(=O)(=O)c3ccc(OC)cc3)CC2)cc1 | 0.564% |  |  |
| Cc1ccc(NC(=O)CN2CCN(C(=O)c3ccco3)CC2)cc1 | 15.1% |  |  |
| Cc1cc2cc(CN(Cc3ccco3)C(=O)NCc3ccccc3)c(=O)[nH]c2cc1C |  | 0.92 µM [rising, full curve] | 6.51 µM [rising, single point] |
| CCn1c(SCC(=O)N(C)c2ccccc2)nc2c([nH]c3ccccc32)c1=O | -24.6% |  | 4.11 µM [falling, full curve, poor fit] |
| CCC(Oc1ccccc1)C(=O)N1CCN(C(=O)C(CC)Oc2ccccc2)CC1 (centres undefined) | -0.53% | 6.51 µM [falling, single point] |  |
| CCOc1ccc(Cc2c(C)[nH]c3ccc(C(=O)O)cc3c2=S)cc1 | 3.17% | 0.291 µM [rising, full curve] |  |
| Cc1ccc(S(=O)(=O)NCC(c2ccco2)S(=O)(=O)c2ccccc2)cc1 (centres undefined) |  | 6.51 µM [falling, single point] |  |
| CCN(CC)S(=O)(=O)c1cccc(NC(=O)COC(=O)CCC(=O)c2ccc(F)cc2)c1 | 69.5% | 6.51 µM [rising, single point] | 6.51 µM [falling, single point] |
| O=c1oc2ccccc2cc1-c1cn(-c2ccccc2)c(=S)[nH]1 | 3.49% | 1.64 µM [rising, partial curve, poor fit] |  |
| Cc1nnc(N2CCC(C(=O)N3CCCCC3)CC2)c2nn(-c3ccc(Cl)cc3)c(C)c12 | -106% | 29.1 µM [falling, single point] | 29.1 µM [falling, single point] |
| Cc1ccc(CCP(=O)(O)CN2CCOCC2)cn1 | -13.3% | 0.651 µM [falling, partial curve, poor fit] | 0.0206 µM [falling, full curve, poor fit] |
| COc1cccc(-c2cc(C(=O)N3CCN(S(=O)(=O)c4ccc(Br)cc4)CC3)[nH]n2)c1 |  | 4.11 µM [falling, full curve, poor fit] |  |
| N#CC1=C2SCC(O)(c3ccccc3)N2C(=O)CC1c1ccccc1F (centres undefined) | 223% |  | 18.4 µM [rising, partial curve] |
| COc1cc(OC)cc(C(=O)Nc2ncc3c(n2)CC(C)(C)CC3=O)c1 | 2.44% | 0.13 µM [falling, full curve, poor fit] |  |
| CCC(c1nnnn1C(C)(C)CC)N(CCCO)Cc1cc2cc(C)cc(C)c2[nH]c1=O (centres undefined) | 40.9% | 2.91 µM [rising, partial curve] | 2.59 µM [rising, full curve] |
| O=C(O)c1ccc(-n2cccn2)c([N+](=O)[O-])c1 | 23.9% | 18.4 µM [falling, partial curve] |  |
| COc1ccc2nc(NC(=O)CSCC(=O)Nc3cc(C)on3)sc2c1 | 8.5% |  |  |
| COC(=O)CCC(=O)OC1(C)C(=O)C2=CN(CCCCO)C(c3ccc(OC)cc3)=CC2=C(Br)C1=O (centres undefined) | 15.6% | 1.03 µM [rising, single point] | 7.31 µM [rising, partial curve, poor fit] |
| CC(C)C(NC(=O)/C=C/c1cccc([N+](=O)[O-])c1)C(C)C | -23.6% | 29.1 µM [falling, single point] | 0.731 µM [rising, full curve] |
| O=C1CN(C(=O)c2cccc(Br)c2)c2ccccc2N1 | 15.8% | 1.16 µM [falling, single point] |  |
